Experimental data: PubChem BioAssay AID720505 (Drosophila RNAi Screening Center, 2013)
The deposit covers about 20,000 reagents; below is an unselected part of those that have a named target and a result. Of all reagents, about 2,100 (10%) are marked active. 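Raw plate signals without normalisation; calls rest on control-based scores that were not deposited; replicate 2 separates called from uncalled poorly.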 A plus sign joins genes that one reagent is predicted to hit. Not given: the amount of reagent, the time to read-out.

Purpose: 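Genes needed for store-operated calcium entry in fly cells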 (primary screen)
Cell system: Drosophila S2R+ cells
Reagents: long dsRNA against Drosophila genes
Conditions: thapsigargin (2 µM) in calcium-free buffer to empty internal stores, then 2 mM calcium added back
Measured: 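Stores emptied by 2 µM thapsigargin without calcium, then 2 mM calcium re-added; fluo-4 fluorescence followed by FLIPR in 384-well plates, per-well averaged endpoint, raw; two screen passes, some wells retested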
Direction: calcium signal and retest calcium signal: higher = more calcium entry after store depletion
Hit rule: 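About 1500 genes called as lowering calcium entry, by varying amounts, judged against per-plate control wells with STIM1 as positive and Rho1 as negative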
Meaning of the calls: active = called as lowering calcium entry; inactive = not called

target	dsRNA	calcium signal, replicate 1	calcium signal, replicate 2	retest calcium signal, replicate 1	retest calcium signal, replicate 2	activity call
eIF3k	DRSC04056	68	96.5			active
CG42340	DRSC17458	8704	146			inactive
CG42340	DRSC17841	129	110			inactive
CG42340	DRSC18305	139	91.4			inactive
CG42340	DRSC21619	121	126			inactive
CG33229	DRSC07863					active
CG6287	DRSC02947	108	85.5			inactive
Cyp4p1	DRSC07372	164	198			inactive
Pex12	DRSC00622	118	106			inactive
tub	DRSC12389	120	85.6	183	158	inactive
tub	DRSC22800	96.1	125			inactive
Idgf3	DRSC03351	89.5	120			inactive
Mdr49	DRSC07466	97.9	165			inactive
rswl	DRSC06923	151	82.9			inactive
Dph3	DRSC14923	141	98.7			inactive
CG5157	DRSC10488	101	231			inactive
Ggamma30A	DRSC02715	161	172			inactive
Ggamma30A	DRSC03331	155	174			inactive
Zdhhc8	DRSC18044	91.3	95.4			inactive
Zdhhc8	DRSC18122	54.4	91.6			active
CG13319	DRSC06356	136	123			inactive
CG14180 (retired record)	DRSC10179	78.8	30.3			active
CG9497	DRSC03234	159	192			inactive
Hydr2	DRSC00607	153	226			inactive
bug	DRSC07137	97.9	92.6			inactive
Tak1	DRSC20390	78.1	150			inactive
Tak1	DRSC20561	127	108			inactive
Tak1	DRSC20562	142	89.1			inactive
Acp24A4	DRSC22352	109	227			inactive
Fatp3	DRSC04366	92.5	187			inactive
stx	DRSC18442	122	98.4			inactive
stx	DRSC18443	129	131			inactive
stx	DRSC23075	98.3	99.2			inactive
Nup93-1	DRSC19344	76.4	55			active
CG14932	DRSC02414	212	110			inactive
TrxT	DRSC22182	122	228			inactive
TrxT	DRSC23117	100	130			inactive
CG13133	DRSC02230	125	88.7			inactive
CG34278	DRSC13208					active
CG15047	DRSC19623	94.6	136	8333	140	inactive
CG15047	DRSC21443	153	107			inactive
CG14253	DRSC14748	173	131			inactive
SIFa	DRSC04480	166	207			inactive
CG34112	DRSC12235	112	163			inactive
CG13160	DRSC06284	158	172			inactive
Or59c	DRSC04633	127	166			inactive
CG15517	DRSC15056	175	164			inactive
CG8173	DRSC20088	96	133			inactive
CG10764	DRSC06000	139	112			inactive
CG8668	DRSC03101	130	216			inactive
CG9452	DRSC11075	126	180			inactive
CG9452	DRSC23344	106	158			inactive
CG30031 + deltaTry + CG30025 + 1 more	DRSC21262	155	118			inactive
Cnep1r1	DRSC20620	152	105			inactive
Cpr64Ad	DRSC08284	99.7	77.6			inactive
CG13026	DRSC09906	106	157			inactive
mthl4	DRSC06998	135	118			inactive
Dnaaf4	DRSC02405	193	182			inactive
CG12204	DRSC19442	127	114			inactive
CG31436	DRSC14661	204	140			inactive
app	DRSC10246	91.4	112			inactive
app	DRSC10526	106	82.2			inactive
CG31909	DRSC22180	106	233			inactive
CG12519	DRSC10311	119	161			inactive
CG12519	DRSC21549	270	121			inactive
Prosalpha1R + Prosalpha1	DRSC07515	99.5	89.8			active
CG34382	DRSC08999					inactive
CG34382	DRSC10166	111	80.3			inactive
CG34382	DRSC10167	101	77.8			inactive
CG15812	DRSC08479	46.9	87.2			active
Ldh	DRSC11198	106	83.7			inactive
Myt1	DRSC11228	76.3	86.8			inactive
Sid	DRSC16588	162	190			inactive
Mpp6	DRSC03169	68.8	167			inactive
Gr2a	DRSC18603	81.3	120			inactive
Atg14	DRSC14421	84.9	98.6			inactive
CG4375	DRSC00653	132	155			inactive
CG12836	DRSC06182	56.6	133			active
CG8170	DRSC07087	172	140			inactive
asRNA:CR30267	DRSC21628	154	103			inactive
CG2111	DRSC18205	102	98.6			inactive
rasp	DRSC08191	104	128			inactive
CG1504	DRSC20513	156	79.9			inactive

Active calls, among the entries above:
target	dsRNA	calcium signal, replicate 1	calcium signal, replicate 2	retest calcium signal, replicate 1	retest calcium signal, replicate 2	activity call
eIF3k	DRSC04056	68	96.5			active
CG33229	DRSC07863					active
Zdhhc8	DRSC18122	54.4	91.6			active
CG14180 (retired record)	DRSC10179	78.8	30.3			active
Nup93-1	DRSC19344	76.4	55			active
CG34278	DRSC13208					active
Prosalpha1R + Prosalpha1	DRSC07515	99.5	89.8			active
CG15812	DRSC08479	46.9	87.2			active
CG12836	DRSC06182	56.6	133			active
